For part of these data: At least one structure is not confirmed: it was looked up by name or label, or the drawing left a doubt. Some entries share one result that the patent states for a list of compounds. Ends that are not written are not given here.
How the values were obtained:
[1] = tested on: Pseudomonas aeruginosa ATCC 9027; experiment: Time-kill assay; assay type: cell-based; settings: P. aeruginosa; 5×MIC (15.6 μg/ml)
Description: (§1) The survival of bacteria, time kill efficacy assay of IS 111 was further evaluated for activity against bacterial strain mentioned above according to CLSI reference method, with slightly modification. MICs were determined by broth microdilution assay as described above. […] Test tubes of MHB without test compound IS 111 were used as vehicle controls. Overnight cultures of the bacterial strains at cell densities of approximately 1×10^8 CFU/ml were used to inoculate both test and control tubes. The standard tube dilution method was opted to evaluate the time-kill efficacy of bacteria. Bacterial inoculum (1 mL) was diluted by adding 9 mL sterile saline solution and serially diluted up to 10^−3. […] Plates with 10-300 colonies were used for these counts, and the kill rate was determined by plotting log 10 viable counts (CFU/ml) against time. […]
(§2) The time-kill kinetics antibacterial study of the Peptide IS 111 was carried out to assess the killing rate of the compound within a given contact time. The survival of bacteria, time kill efficacy assay of IS 111 was further evaluated for activity against Escherichia coli ATCC 8739 and Staphylococcus aureus ATCC 6538, Pseudomonas aeruginosa ATCC 9027 and Klebsiella pneumoniae ATCC 700603 according to CLSI reference method, with slightly modification. MICs were determined by broth microdilution assay as described above. […]

[2] = tested on: Escherichia coli ATCC 8739; experiment: Time-kill assay; assay type: cell-based; settings: E. coli; 5×MIC (7.8 μg/ml)
Description: as §1, §2

[3] = tested on: LPS-stimulated RAW 264.7 cells; experiment: ELISA of cytokines in supernatants of LPS-stimulated RAW 264.7 cells; assay type: cell-based, murine; settings: dexamethasone 500 μg/mL; LPS 18 h
Description: Cells were sub-cultured by scraping when plates reached 70-80% confluence with a 1:5 ratio in fresh medium. RAW 264.7 cells were plated at density of 1×10^5 cells and allowed for attachment. The growth medium was then replaced with fresh medium without FBS and incubated for 6 h then cells were pre-treated with different concentrations of synthetic peptides: IS 111 (3.12, 6.25, 12.5, 25, 50 and 100 μg/mL) or dexamethasone (500 μg/mL) as a positive control for 1 h followed by stimulation of LPS (1 μg/mL) and then further incubated for 18 h and were allowed to adhere. After 18 h of incubation, plates were centrifuged for 6 min at 400×g and the supernatants and cell lysates were collected and kept frozen at −80° C. until used for further analysis.
At the end of the treatment period, cells were harvested in RNA isoplus reagent for subsequent cellular RNA extraction, for RTqPCR. The pro & anti-inflammatory cytokine production in supernatants was estimated by using ELISA, RTqPCR and western blotting in cell lysates. The experiment was carried out in triplicate. LPS and Dexamethasone were used as the controls. […]
The levels of IL-6, TNF-α, IL-1β, and IL-10 in the supernatants of RAW 264.7 cell cultures were determined using an ELISA kit, according to the manufacturer's instructions (R&D Systems).

| Compound | Time to bacteriostatic activity [1] [h] | Time to bacteriostatic activity [2] [h] | Anti-inflammatory action (inhibition of all markers) [3] |
| --- | --- | --- | --- |
| FAKKFAK [IS 111, Phe-Ala-Lys-Lys-Phe-Ala-Lys] | ≤ 3 | ≤ 3 | – |
| C[C@@H]1C[C@H]2[C@@H]3CCC4=CC(=O)C=C[C@]4(C)[C@@]3(F)[C@@H](O)C[C@]2(C)[C@@]1(O)C(=O)CO [Dexamethasone, dexamethasone, reference compound] | – | – | significant anti-inflammatory action |
